Experimental data: PubChem BioAssay AID2685 (National Center for Advancing Translational Sciences (NCATS), 2010)
Some of the results follow. Shown are side measurements of this screen, not its main read-out; they come without a call. Compounds called inactive in the main read-out are mostly missing here. The note in brackets gives the kind of curve behind each potency; many fits are weak.

Assay: qHTS Assay for Lipid Storage Modulators in Drosophila S3 Cells;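 as to cell number change: cells counted by Cell Tracker Red CMTPX staining in the red channel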
Settings: BODIPY lipid droplet fluorescence, 18-24 h; for cell number change: measured here: cell count max response, cells fed with added oleic acid
Method in brief: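 Drosophila S3 cells got compounds at several concentrations plus oleic acid (400 uM solution). Laser-scanning cytometry with 488 nm excitation read lipid droplets at 500-530 nm and cells at 575-640 nm. Percent activity was relative to 20 uM Triacsin C.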

[1] = measured here: cell number channel AC50, cells fed with added oleic acid
[2] = measured here: lipid fluorescence (Fed channel) AC50, cells fed with added oleic acid

Question: Which AC50 [1] does the source give for `COc1ccc(/C=N/NC2=NS(=O)(=O)c3ccccc32)cc1OC(C)=O` here?
Answer: 6.51 µM [rising, partial curve, poor fit]

Question: With `Cc1c(C(=O)OCCOc2ccccc2)[nH]c2c1C(=O)CCC2` as the compound, how does the cell number change read?
Answer: -78.4%

Question: What about the AC50 [1] of the same compound?
Answer: 0.82 µM [falling, full curve, poor fit]

Question: What about the AC50 [2] of the same compound?
Answer: 23.1 µM [falling, partial curve, poor fit]

Question: Which results are given for `COc1ccc(N2CCN(c3cc(C)c4ccccc4n3)CC2)cc1`?
Answer: cell number change: -7.87%; AC50 [1]: 3.66 µM [rising, single point]; AC50 [2]: 6.51 µM [rising, single point]

Question: With `COc1ccc(CCNC(=O)C2CCN(S(=O)(=O)c3ccc(OC)cc3)CC2)cc1` as the compound, how does the cell number change read?
Answer: -17.6%

Question: And the AC50 [2]?
Answer: 4.11 µM [rising, full curve]

Question: With `COc1ccc(C(=O)Nc2sc(C)c(C)c2CN2CCOCC2)cc1` as the compound, how does the cell number change read?
Answer: -0.544%

Question: And the AC50 [2]?
Answer: 32.6 µM [falling, single point]

Question: With `C=CCn1cc(C(=O)OC)c(=O)c2cc(S(=O)(=O)N3CCC(C)CC3)ccc21` as the compound, how does the cell number change read?
Answer: 7.22%

Question: And the AC50 [1]?
Answer: 2.06 µM [rising, single point]

Question: With `CCOc1ccc(N2C(=O)c3cccnc3C2Nc2ccc(C)c(C)c2)cc1` (centres undefined) as the compound, how does the cell number change read?
Answer: 8.11%

Question: For `O=C1C2CC=C(Cl)CC2C(=O)N1CN(Cc1ccco1)CN1C(=O)C2CC=C(Cl)CC2C1=O` (centres undefined), which cell number change is on record?
Answer: -38.8%

Question: What about the AC50 [1] of the same compound?
Answer: 29.1 µM [falling, single point]

Question: What about the AC50 [2] of the same compound?
Answer: 0.0651 µM [falling, full curve]

Question: For `O=C(COc1ccc(Cl)cc1)Nc1ccccc1C(=O)NCc1ccco1`, which cell number change is on record?
Answer: -64.4%

Question: And the AC50 [1]?
Answer: 20.6 µM [falling, single point]

Question: What about the AC50 [2] of the same compound?
Answer: 2.06 µM [rising, partial curve]

Question: Which results are given for `O=C1C=C(c2cccc(CO)c2)C[C@@H](c2ccc(F)cc2)C1`?
Answer: cell number change: -31.7%; AC50 [1]: 3.66 µM [falling, single point]; AC50 [2]: 1.3 µM [rising, partial curve]

Question: For `Cc1nnc(NC2CCCCC2)[nH]c1=O`, which cell number change is on record?
Answer: -35.5%

Question: What about the AC50 [1] of the same compound?
Answer: 32.6 µM [falling, single point]

Question: With `CCCCOc1cccc(/C=N/NC(=O)c2csc(C)c2C)c1` as the compound, how does the cell number change read?
Answer: -25%

Question: What about the AC50 [2] of the same compound?
Answer: 29.1 µM [falling, single point]

Question: Which cell number change does the source give for `CSc1ncccc1C(=O)Nc1ncc(C)s1` here?
Answer: -2.7%

Question: For `COc1ccc(Cn2c(=S)[nH]c3cc(C(=O)N4CCN(c5ccccc5)CC4)ccc3c2=O)cc1`, which cell number change is on record?
Answer: 8.97%

Question: Which results are given for `Cc1ccc(C2N(c3ccccc3)C(=O)N3CCCN23)cc1` (centres undefined)?
Answer: cell number change: -40.8%; AC50 [1]: 35.5 µM [falling, single point]; AC50 [2]: 15.8 µM [falling, partial curve, poor fit]

Question: With `Cn1c(NCc2cccc(Br)c2)nc2ccccc21` as the compound, how does the AC50 [1] read?
Answer: 3.26 µM [rising, partial curve]

Question: And the AC50 [2]?
Answer: 4.11 µM [rising, partial curve]

Question: With `C1CNCCNCCCNCCNC1` as the compound, how does the cell number change read?
Answer: 4.46%

Question: And the AC50 [2]?
Answer: 10.3 µM [falling, partial curve]

Question: With `CCOc1ccc(NC(=O)CCCN2C(=O)C(c3ccccc3)Oc3cccnc32)cc1` (centres undefined) as the compound, how does the cell number change read?
Answer: -23.6%

Question: What about the AC50 [2] of the same compound?
Answer: 29.1 µM [falling, single point]

Question: What does the source list for `C[C@@H](C(=O)NCCc1ccccc1)N1C(=O)N2CCc3c([nH]c4ccccc34)[C@@]2(C)C1=O`?
Answer: cell number change: -40.4%; AC50 [1]: 29.1 µM [falling, single point]

Question: For `COc1ccc(-n2cc(CNCCCn3ccnc3)c(-c3ccccc3Cl)n2)cc1`, which cell number change is on record?
Answer: 19.6%

Question: What about the AC50 [2] of the same compound?
Answer: 29.1 µM [rising, single point]

Question: With `COCCNC(=O)c1nc2ccccc2s1` as the compound, how does the cell number change read?
Answer: 23.6%

Question: And the AC50 [2]?
Answer: 7.31 µM [rising, partial curve]

Question: Which cell number change does the source give for `CCc1nnc(NC=C2C(=O)OC(C)(C)OC2=O)s1` here?
Answer: 8.32%

Question: And the AC50 [2]?
Answer: 5.8 µM [rising, partial curve, poor fit]

Question: For `C=C(C)c1cccc(C(C)(C)NC(=O)NCc2ccc(OC)c(OC)c2)c1`, which cell number change is on record?
Answer: -37.1%

Question: What about the AC50 [1] of the same compound?
Answer: 11.6 µM [falling, partial curve]

Question: And the AC50 [2]?
Answer: 18.4 µM [falling, partial curve]

Question: For `CCn1nc(C(=O)OCC(=O)Nc2nc(-c3ccc(OC)cc3)cs2)c2ccccc2c1=O`, which cell number change is on record?
Answer: 44.8%

Question: What about the AC50 [1] of the same compound?
Answer: 2.31 µM [rising, full curve]

Question: What about the AC50 [2] of the same compound?
Answer: 0.82 µM [rising, full curve]

Question: For `C1CCC2(CC1)C1=C(CCCC1)Nc1nnnn12`, which cell number change is on record?
Answer: -2.38%

Question: Which cell number change does the source give for `CCOC(=O)N1CCC(Nc2c(Nc3ccc(C)c(C)c3)c(=O)c2=O)CC1` here?
Answer: 71.4%

Question: And the AC50 [1]?
Answer: 11.6 µM [rising, partial curve, poor fit]

Question: And the AC50 [2]?
Answer: 8.2 µM [rising, partial curve]

Question: For `COc1ccccc1-c1ccc(=O)n(CC(=O)NCc2cccs2)n1`, which cell number change is on record?
Answer: -43.7%

Question: Which cell number change does the source give for `Cc1nc(N2CCN(c3ccccn3)CC2)c2c(C)c(C(=O)N3CCN(c4ccc(F)cc4)CC3)sc2n1` here?
Answer: 5.13%

Question: With `COc1ccc(-n2ccnc2SCC(=O)NC2CCCC2)c(OC)c1` as the compound, how does the cell number change read?
Answer: 18.8%

Question: What about the AC50 [2] of the same compound?
Answer: 5.17 µM [rising, single point]

Question: For `COc1ccc(/C=N/OCC(=O)OCC(=O)N(C)c2ccccc2)cc1`, which cell number change is on record?
Answer: 3.2%

Question: What about the AC50 [2] of the same compound?
Answer: 0.00461 µM [rising, full curve, poor fit]

Question: Which cell number change does the source give for `O=C(NCC(=O)N1CCN(c2ccccc2)CC1)c1ccc(Br)o1` here?
Answer: -12.5%

Question: And the AC50 [2]?
Answer: 29.1 µM [rising, single point]

Question: For `CC(=O)CC(=O)Nc1cccc2c1CCCC2`, which AC50 [2] is on record?
Answer: 0.116 µM [falling, single point]

Question: Which cell number change does the source give for `O=C(CSc1nc(=O)n2ccccc2n1)NCCc1ccccc1` here?
Answer: 22.1%

Question: Which results are given for `Cc1ccc(Cl)cc1NC(=O)COC(=O)c1ccccc1O`?
Answer: cell number change: -15.6%; AC50 [2]: 29.1 µM [falling, single point]

Question: Which results are given for `CC(Sc1nnc(Cc2cccs2)n1C1CCCCC1)C(N)=O` (centres undefined)?
Answer: cell number change: 47.8%; AC50 [1]: 29.1 µM [rising, single point]; AC50 [2]: 2.06 µM [falling, partial curve]

Question: What does the source list for `COC(=O)c1c(C)nc(C)c2c(=O)oc3ccccc3c12`?
Answer: cell number change: -18.4%; AC50 [2]: 6.51 µM [falling, single point]

Question: For `O=C(NCCCN1CCOCC1)C1CCN(S(=O)(=O)c2c(Cl)cccc2Cl)CC1`, which cell number change is on record?
Answer: 2.97%

Question: What about the AC50 [1] of the same compound?
Answer: 3.66 µM [rising, single point]

Question: And the AC50 [2]?
Answer: 6.51 µM [rising, single point]

Question: Which AC50 [2] does the source give for `O=C(CN1CCN(c2ccc(F)cc2)CC1)OCc1ccccc1` here?
Answer: 0.092 µM [falling, full curve, poor fit]

Question: For `Nc1nnc(-c2ccccc2)s1`, which cell number change is on record?
Answer: 4.42%

Question: What about the AC50 [1] of the same compound?
Answer: 0.13 µM [falling, full curve, poor fit]

Question: For `CN(CC(=O)Nc1cccc(F)c1)C(=O)/C=C/c1ccc2ccccc2n1`, which cell number change is on record?
Answer: -2.79%

Question: With `COC(=O)c1ccccc1NC(=O)CN1CCCCC1` as the compound, how does the cell number change read?
Answer: -45.8%

Question: And the AC50 [1]?
Answer: 20.6 µM [falling, single point]

Question: For `COc1cccc(-c2nnc(SCC(=O)N3CCCC3=O)n2-c2ccccc2)c1`, which cell number change is on record?
Answer: -7.84%

Question: And the AC50 [1]?
Answer: 6.51 µM [rising, single point]

Question: For `O=C(NCCC1CCCCN1S(=O)(=O)c1cccs1)C(=O)Nc1ccc(F)cc1F` (centres undefined), which cell number change is on record?
Answer: -23.1%

Question: What about the AC50 [2] of the same compound?
Answer: 1.84 µM [falling, partial curve, poor fit]

Question: For `CC(C)OCCCNC(=O)c1cccs1`, which cell number change is on record?
Answer: -31.4%

Question: And the AC50 [1]?
Answer: 18.4 µM [falling, single point]

Question: What about the AC50 [2] of the same compound?
Answer: 8.2 µM [falling, partial curve]

Question: Which results are given for `COc1ccc(S(=O)(=O)N2CCOCC2)cc1NC(=O)C1CCCN1C(=O)c1cccs1` (centres undefined)?
Answer: cell number change: -7.72%; AC50 [2]: 6.51 µM [rising, single point]

Question: What does the source list for `CCN(CC(=O)Nc1ccccc1C(F)(F)F)CC(=O)NC1CC1`?
Answer: cell number change: -32.3%; AC50 [1]: 2.91 µM [falling, full curve]; AC50 [2]: 9.2 µM [rising, partial curve]

Question: Which cell number change does the source give for `CCCn1cc(CN2CCC(Oc3ccc(C(=O)N4CCCC4)cc3)CC2)c(C)n1` here?
Answer: 3.77%

Question: What does the source list for `CO/N=C(\CCC(=O)O)c1cccs1`?
Answer: cell number change: -2.03%; AC50 [1]: 5.8 µM [falling, single point]

Question: With `Cc1ccc(S(=O)(=O)Cn2nnnc2C(c2ccccn2)N2CCN(c3ccccc3)CC2)cc1` (centres undefined) as the compound, how does the cell number change read?
Answer: 25.7%

Question: What about the AC50 [1] of the same compound?
Answer: 0.517 µM [rising, single point]

Question: What does the source list for `CC(=O)Nc1cccc(-c2cc(-c3c(Cl)cccc3Cl)no2)c1`?
Answer: cell number change: 15.1%; AC50 [2]: 0.0651 µM [rising, partial curve, poor fit]

Question: For `CCOC(=O)c1c(C)oc2c1c(C=NCCO)c(O)c1ccccc12`, which cell number change is on record?
Answer: 14.9%

Question: With `CCN1CCN(CCCNC(=O)CNC(=O)c2nn(-c3ccc(OC)cc3)c(=O)c3ccccc23)CC1` as the compound, how does the cell number change read?
Answer: 13.1%

Question: Which results are given for `CCOc1cccc2sc(N(CCCN(C)C)C(=O)c3ccc(S(=O)(=O)N4CCc5ccccc5C4)cc3)nc12`?
Answer: cell number change: 30.2%; AC50 [1]: 2.59 µM [rising, full curve, poor fit]; AC50 [2]: 6.51 µM [rising, single point]

Question: With `O=C(NC1CCCCCCC1)c1cccc(Cl)c1` as the compound, how does the cell number change read?
Answer: 18.7%

Question: What about the AC50 [2] of the same compound?
Answer: 0.259 µM [rising, full curve, poor fit]

Question: Which cell number change does the source give for `Fc1ccccc1N1CCN(CC2CC3C=CC2C3)CC1` (centres undefined) here?
Answer: -17.6%

Question: And the AC50 [2]?
Answer: 0.731 µM [falling, single point]

Question: With `c1ccc(CC2CCN(c3nc4ccccc4n4nnnc34)CC2)cc1` as the compound, how does the AC50 [1] read?
Answer: 2.06 µM [rising, partial curve]

Question: With `Cc1cccc(-n2c(N)cc(=O)nc2SCC(=O)Nc2ccccc2)c1` as the compound, how does the cell number change read?
Answer: 40.3%

Question: What about the AC50 [1] of the same compound?
Answer: 29.1 µM [rising, single point]

Question: And the AC50 [2]?
Answer: 23.1 µM [rising, single point]

Question: For `CCOc1ccc(Nc2nc(N(C)c3ccccc3)nc(N)c2[N+](=O)[O-])cc1`, which cell number change is on record?
Answer: 6.85%

Question: What about the AC50 [2] of the same compound?
Answer: 1.64 µM [falling, partial curve, poor fit]

Question: What does the source list for `CCOc1ncccc1C(=O)OCC(=O)Nc1cc(S(=O)(=O)N2CCOCC2)ccc1C`?
Answer: cell number change: 64.6%; AC50 [1]: 29.1 µM [rising, single point]; AC50 [2]: 1.84 µM [falling, single point]
